Experimental data: the supplement of paper PMC8728848
The other results are listed elsewhere or left out.

How the values were obtained:
Assay in all cases: glycan array binding signal (z-score within array); higher = stronger binding
Conditions in all cases: glycan notation: IUPAC condensed, linker removed
Neu5Ac(a2-3)GalNAc = target: Neu5Ac(a2-3)GalNAc
Method in brief: (§1)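 Glycan array data were curated from 3228 arrays in the Consortium for Functional Glycomics database and kept only where the protein sequence was available. Glycan names were converted to IUPAC-condensed notation, and columns mapping to the same glycan were averaged. The binding signal is a within-array Z-score, averaged across arrays of the same protein sequence at different concentrations or buffers and across linkers. Negative Z-scores can be read as non-binding.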

[1] = target: Neu5Ac(a2-3)GalNAc(b1-4)GlcNAc
Method in brief: as §1

[2] = target: Neu5Ac(a2-3)[GalNAc(b1-4)]Gal(b1-4)Glc
Method in brief: as §1

[3] = target: Neu5Ac(a2-3)[GalNAc(b1-4)]Gal(b1-4)GlcNAc
Method in brief: as §1

[4] = target: Neu5Ac(a2-3)[GalNAc(b1-4)]Gal(b1-4)GlcNAc(b1-3)GalNAc
Method in brief: as §1

[5] = target: Neu5Ac(a2-3)[Neu5Ac(a2-6)]GalNAc
Method in brief: as §1

Neu5Ac(a2-6)Gal = target: Neu5Ac(a2-6)Gal
Method in brief: as §1

[6] = target: Neu5Ac(a2-6)Gal(b1-3)GlcNAc(b1-3)[Gal(b1-4)GlcNAc(b1-6)]Gal(b1-4)Glc
Method in brief: as §1

Neu5Ac(a2-6)Gal(b1-4)Glc = target: Neu5Ac(a2-6)Gal(b1-4)Glc
Method in brief: as §1

[7] = target: Neu5Ac(a2-6)Gal(b1-4)GlcNAc
Method in brief: as §1

[8] = target: Neu5Ac(a2-6)Gal(b1-4)GlcNAc(b1-2)Man
Method in brief: as §1

[9] = target: Neu5Ac(a2-6)Gal(b1-4)GlcNAc(b1-2)Man(a1-3)Man(b1-4)GlcNAc(b1-4)GlcNAc
Method in brief: as §1

[10] = target: Neu5Ac(a2-6)Gal(b1-4)GlcNAc(b1-2)Man(a1-3)[Gal(b1-4)GlcNAc(b1-2)Man(a1-6)]Man(b1-4)GlcNAc(b1-4)GlcNAc
Method in brief: as §1

[11] = target: Neu5Ac(a2-6)Gal(b1-4)GlcNAc(b1-2)Man(a1-3)[GlcNAc(b1-2)Man(a1-6)]Man(b1-4)GlcNAc(b1-4)GlcNAc
Method in brief: as §1

[12] = target: Neu5Ac(a2-6)Gal(b1-4)GlcNAc(b1-2)Man(a1-3)[GlcNAc(b1-4)][Neu5Ac(a2-6)Gal(b1-4)GlcNAc(b1-2)Man(a1-6)]Man(b1-4)GlcNAc(b1-4)GlcNAc
Method in brief: as §1

[13] = target: Neu5Ac(a2-6)Gal(b1-4)GlcNAc(b1-2)Man(a1-3)[Man(a1-6)]Man(b1-4)GlcNAc(b1-4)GlcNAc
Method in brief: as §1

[14] = target: Neu5Ac(a2-6)Gal(b1-4)GlcNAc(b1-2)Man(a1-3)[Neu5Ac(a2-3)Gal(b1-4)GlcNAc(b1-2)Man(a1-6)]Man(b1-4)GlcNAc(b1-4)GlcNAc
Method in brief: as §1

[15] = target: Neu5Ac(a2-6)Gal(b1-4)GlcNAc(b1-2)Man(a1-3)[Neu5Ac(a2-6)Gal(b1-4)GlcNAc(b1-2)Man(a1-6)]Man(b1-4)GlcNAc(b1-4)GlcNAc
Method in brief: as §1

[16] = target: Neu5Ac(a2-6)Gal(b1-4)GlcNAc(b1-2)Man(a1-3)[Neu5Ac(a2-6)Gal(b1-4)GlcNAc(b1-2)Man(a1-6)]Man(b1-4)GlcNAc(b1-4)[Fuc(a1-6)]GlcNAc
Method in brief: as §1

[17] = target: Neu5Ac(a2-6)Gal(b1-4)GlcNAc(b1-2)Man(a1-6)Man(b1-4)GlcNAc(b1-4)GlcNAc
Method in brief: as §1

[18] = target: Neu5Ac(a2-6)Gal(b1-4)GlcNAc(b1-2)Man(a1-6)[Gal(b1-4)GlcNAc(b1-2)Man(a1-3)]Man(b1-4)GlcNAc(b1-4)GlcNAc
Method in brief: as §1

[19] = target: Neu5Ac(a2-6)Gal(b1-4)GlcNAc(b1-2)Man(a1-6)[GlcNAc(b1-2)Man(a1-3)]Man(b1-4)GlcNAc(b1-4)GlcNAc
Method in brief: as §1

[20] = target: Neu5Ac(a2-6)Gal(b1-4)GlcNAc(b1-2)Man(a1-6)[Man(a1-3)]Man(b1-4)GlcNAc(b1-4)GlcNAc
Method in brief: as §1

[21] = target: Neu5Ac(a2-6)Gal(b1-4)GlcNAc(b1-2)[Neu5Ac(a2-6)Gal(b1-4)GlcNAc(b1-4)]Man(a1-3)[GlcNAc(b1-4)][Neu5Ac(a2-6)Gal(b1-4)GlcNAc(b1-2)[Neu5Ac(a2-6)Gal(b1-4)GlcNAc(b1-6)]Man(a1-6)]Man(b1-4)GlcNAc(b1-4)GlcNAc
Method in brief: as §1

[22] = target: Neu5Ac(a2-6)Gal(b1-4)GlcNAc(b1-2)[Neu5Ac(a2-6)Gal(b1-4)GlcNAc(b1-4)]Man(a1-3)[GlcNAc(b1-4)][Neu5Ac(a2-6)Gal(b1-4)GlcNAc(b1-4)Man(a1-6)]Man(b1-4)GlcNAc(b1-4)GlcNAc
Method in brief: as §1

[23] = target: Neu5Ac(a2-6)Gal(b1-4)GlcNAc(b1-2)[Neu5Ac(a2-6)Gal(b1-4)GlcNAc(b1-6)]Man(a1-6)[Neu5Ac(a2-6)Gal(b1-4)GlcNAc(b1-2)Man(a1-3)][GlcNAc(b1-4)]Man(b1-4)GlcNAc(b1-4)GlcNAc
Method in brief: as §1

[24] = target: Neu5Ac(a2-6)Gal(b1-4)GlcNAc(b1-3)Gal(b1-3)GlcNAc
Method in brief: as §1

[25] = target: Neu5Ac(a2-6)Gal(b1-4)GlcNAc(b1-3)Gal(b1-4)GlcNAc
Method in brief: as §1

[26] = target: Neu5Ac(a2-6)Gal(b1-4)GlcNAc(b1-3)Gal(b1-4)GlcNAc(b1-2)Man(a1-3)[Neu5Ac(a2-6)Gal(b1-4)GlcNAc(b1-3)Gal(b1-4)GlcNAc(b1-2)Man(a1-6)]GalNAc
Method in brief: as §1

[27] = target: Neu5Ac(a2-6)Gal(b1-4)GlcNAc(b1-3)Gal(b1-4)GlcNAc(b1-3)Gal(b1-4)GlcNAc
Method in brief: as §1

[28] = target: Neu5Ac(a2-6)Gal(b1-4)GlcNAc(b1-3)Gal(b1-4)GlcNAc(b1-3)Gal(b1-4)GlcNAc(b1-2)Man(a1-3)[Neu5Ac(a2-6)Gal(b1-4)GlcNAc(b1-3)Gal(b1-4)GlcNAc(b1-3)Gal(b1-4)GlcNAc(b1-2)Man(a1-6)]GalNAc
Method in brief: as §1

[29] = target: Neu5Ac(a2-6)Gal(b1-4)GlcNAc(b1-3)Gal(b1-4)GlcNAc(b1-3)GalNAc
Method in brief: as §1

[30] = target: Neu5Ac(a2-6)Gal(b1-4)GlcNAc(b1-3)Gal(b1-4)GlcNAc(b1-3)[Neu5Ac(a2-6)Gal(b1-4)GlcNAc(b1-3)Gal(b1-4)GlcNAc(b1-6)]GalNAc
Method in brief: as §1

[31] = target: Neu5Ac(a2-6)Gal(b1-4)GlcNAc(b1-3)Gal(b1-4)GlcNAc(b1-6)[Gal(b1-3)]GalNAc
Method in brief: as §1

[32] = target: Neu5Ac(a2-6)Gal(b1-4)GlcNAc(b1-3)Gal(b1-4)[Fuc(a1-3)]GlcNAc(b1-3)Gal(b1-4)[Fuc(a1-3)]GlcNAc
Method in brief: as §1

[33] = target: Neu5Ac(a2-6)Gal(b1-4)GlcNAc(b1-3)GalNAc
Method in brief: as §1

[34] = target: Neu5Ac(a2-6)Gal(b1-4)GlcNAc(b1-3)[Neu5Ac(a2-6)Gal(b1-4)GlcNAc(b1-6)]GalNAc
Method in brief: as §1

[35] = target: Neu5Ac(a2-6)Gal(b1-4)GlcNAc(b1-6)GalNAc
Method in brief: as §1

[36] = target: Neu5Ac(a2-6)Gal(b1-4)GlcNAc(b1-6)[Gal(b1-3)GlcNAc(b1-3)]Gal(b1-4)Glc
Method in brief: as §1

[37] = target: Neu5Ac(a2-6)Gal(b1-4)GlcNAc(b1-6)[Gal(b1-3)]GalNAc
Method in brief: as §1

[38] = target: Neu5Ac(a2-6)Gal(b1-4)GlcNAc6S
Method in brief: as §1

Neu5Ac(a2-6)GalNAc = target: Neu5Ac(a2-6)GalNAc
Method in brief: as §1

[39] = target: Neu5Ac(a2-6)GalNAc(b1-4)GlcNAc
Method in brief: as §1

[40] = target: Neu5Ac(a2-6)GalNAc(b1-4)GlcNAc6S
Method in brief: as §1

[41] = target: Neu5Ac(a2-6)GlcNAc(b1-4)GlcNAc
Method in brief: as §1

B1: SspB C123 (Streptococcus gordonii), Q54186 (protein)
chain: MAHFHYSSLLAQPQINKEIKNEDGVDIDRTLVAKQSIGKFELKTEALTAGRPKTTSFVLVDPLPTGYKFDLDATKAASTGFDTTYDEASHTVTFKATDETLATYNADLTKPVETLHPTVVGRVLNDGATYTNNFTLTVNDAYGIKSNVVRVTTPGKPNDPDNPNNNYIKPTKVNKNKEGLNIDGKEVLAGSTNYYELTWDLDQYKGDKSSKEAIQNGFYYVDDYPEEALDVRPDLVKVADEKGNQVSGVSVQQYDSLEAAPKKVQDLLKKANITVKGAFQLFSADNPEEFYKQYVSTGTSLVITDPMTVKSEFGKTGGKYENKAYQIDFGNGYATEVVVNNVPKITPKKDVTVSLDPTSENLDGQTVQLYQTFNYRLIGGFIPQNHSEELEDYSFVDDYDQAGDQYTGNYKTFSSLNLTMKDGSVIKAGTDLTSQTTAETDATNGIVTVRFKEDFLQKISLDSPFQAETYLQMRRIAIGTFENTYVNTVNKVAYASAAALEHHHHHH
Neu5Ac(a2-3)GalNAc
  glycan array binding signal (z-score): 0.009
[1]
  glycan array binding signal (z-score): -0.378
[2]
  glycan array binding signal (z-score): 0.61
[3]
  glycan array binding signal (z-score): -0.398
[4]
  glycan array binding signal (z-score): 1.53
[5]
  glycan array binding signal (z-score): -1.05
Neu5Ac(a2-6)Gal
  glycan array binding signal (z-score): -2.16
[6]
  glycan array binding signal (z-score): -0.04
Neu5Ac(a2-6)Gal(b1-4)Glc
  glycan array binding signal (z-score): -0.254
[7]
  glycan array binding signal (z-score): -1.08
[8]
  glycan array binding signal (z-score): -0.49
[9]
  glycan array binding signal (z-score): -0.716
[10]
  glycan array binding signal (z-score): -1.21
[11]
  glycan array binding signal (z-score): -1.16
[12]
  glycan array binding signal (z-score): -1.05
[13]
  glycan array binding signal (z-score): -0.28
[14]
  glycan array binding signal (z-score): -0.488
[15]
  glycan array binding signal (z-score): -0.696
[16]
  glycan array binding signal (z-score): 1.56
[17]
  glycan array binding signal (z-score): -0.261
[18]
  glycan array binding signal (z-score): 0.189
[19]
  glycan array binding signal (z-score): -0.233
[20]
  glycan array binding signal (z-score): 0.389
[21]
  glycan array binding signal (z-score): -0.16
[22]
  glycan array binding signal (z-score): 0.536
[23]
  glycan array binding signal (z-score): -0.933
[24]
  glycan array binding signal (z-score): -0.017
[25]
  glycan array binding signal (z-score): -1.11
[26]
  glycan array binding signal (z-score): -0.761
[27]
  glycan array binding signal (z-score): -1.16
[28]
  glycan array binding signal (z-score): 3.21
[29]
  glycan array binding signal (z-score): 0.329
[30]
  glycan array binding signal (z-score): -0.256
[31]
  glycan array binding signal (z-score): 0.056
[32]
  glycan array binding signal (z-score): 0.632
[33]
  glycan array binding signal (z-score): 0.453
[34]
  glycan array binding signal (z-score): -0.829
[35]
  glycan array binding signal (z-score): 0.496
[36]
  glycan array binding signal (z-score): -0.297
[37]
  glycan array binding signal (z-score): -0.115
[38]
  glycan array binding signal (z-score): 1.02
Neu5Ac(a2-6)GalNAc
  glycan array binding signal (z-score): -0.217
[39]
  glycan array binding signal (z-score): -0.117
[40]
  glycan array binding signal (z-score): 0.167
[41]
  glycan array binding signal (z-score): -1.15
